Literature values in patent US9567367B2, “Synthetic peptides for treatment of bacterial infections” (priority 2012, dated 2017).
At least one peptide structure holds a part that was inferred or is arguable (an end, a ring closure or a residue).

Experiments:
[1] = system: human peripheral blood mononuclear cells; details: cited from earlier work
[2] = system: superantigen; details: mouse, in vivo; cited from earlier work

CSCC[C@H](NC(=O)[C@@H]1CCCN1C(=O)[C@@H](N)CO)C(=O)N[C@@H](CC(C)C)C(=O)N[C@H](C(=O)N[C@@H](C)C(=O)N[C@@H](Cc1ccc(O)cc1)C(=O)N[C@@H](CC(=O)O)C(=O)O)C(C)C [p2TA, SPMLVAYD]
superantigen-mediated induction of inflammatory cytokines [1]: block superantigen-mediated induction of inflammatory cytokines | superantigen-mediated lethality [2]: block superantigen-mediated lethality
